The results in this text go back to patent US20030147847A1 (IMMUNEX, published 2003).

Amino acid sequences for entries named in this document (tags omitted). A change or cut given only in a name is not applied to a line headed by its entry.
UniProt Q9BZM6: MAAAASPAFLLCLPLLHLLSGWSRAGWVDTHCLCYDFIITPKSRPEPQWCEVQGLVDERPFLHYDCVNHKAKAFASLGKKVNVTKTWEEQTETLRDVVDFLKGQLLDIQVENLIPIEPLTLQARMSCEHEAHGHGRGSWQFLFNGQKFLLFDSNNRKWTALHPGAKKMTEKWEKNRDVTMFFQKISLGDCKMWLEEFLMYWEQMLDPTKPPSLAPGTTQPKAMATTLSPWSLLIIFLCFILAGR

Results are given in words; binding and its absence hold for the method and conditions named. Some binding calls cover weakened binding; strength is not graded here. Sequences can lack the tags named with a protein.

The target in assay [1] is T1, NKG2D/Dap10 on transfected 293E cells (UniProt P26718 1-216; Q9UBK5 19-93).
T1 construct: whole, on cells; Co-expressed on 293 EBNA (293E) cells from the pDC409 vector; also called NKG2D+FLAG tagged Dap10
T1 sequence 1: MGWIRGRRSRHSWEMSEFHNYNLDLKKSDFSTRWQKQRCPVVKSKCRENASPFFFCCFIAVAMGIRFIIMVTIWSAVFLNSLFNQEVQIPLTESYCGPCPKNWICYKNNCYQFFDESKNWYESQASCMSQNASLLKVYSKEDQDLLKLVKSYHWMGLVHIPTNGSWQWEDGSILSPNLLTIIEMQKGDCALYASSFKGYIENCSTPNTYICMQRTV
T1 sequence 2: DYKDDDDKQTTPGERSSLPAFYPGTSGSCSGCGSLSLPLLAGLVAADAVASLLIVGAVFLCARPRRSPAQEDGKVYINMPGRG
As to the kind of experiment: flow cytometry on transfected 293 EBNA cells (Example 7). (In flow cytometry, cells or beads pass a laser one at a time.)

Assay [2] addresses T1, NKG2D/Dap10 on transfected 293E cells. As to the kind of experiment: flow cytometry on transfected 293 EBNA cells.
Assay [3] deals with T2, Full length UL16 on transfected 293 EBNA cells (human cytomegalovirus) (UniProt P16757).
T2 sequence: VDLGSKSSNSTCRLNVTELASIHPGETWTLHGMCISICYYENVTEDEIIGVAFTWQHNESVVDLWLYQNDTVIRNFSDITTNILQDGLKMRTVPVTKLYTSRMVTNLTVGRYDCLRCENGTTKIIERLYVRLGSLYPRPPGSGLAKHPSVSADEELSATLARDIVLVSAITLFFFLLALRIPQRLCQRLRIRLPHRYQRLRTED
Nature of the assay: flow cytometry on 293 EBNA cells transfected with full length UL16 (control).

Assay [4] deals with ULBP-1 polypeptide (human) (UniProt Q9BZM6). As to the kind of experiment: expression cloning by binding of UL16-Fc.

B1: MICA/Fc (Fc fusion, UniProt Q29983 24-307, looked up)
chain: EPHSLRYNLTVLSWDGSVQSGFLTEVHLDGQPFLRCDRQKCRAKPQGQWAEDVLGNKTWDRETRDLTGNGKDLRMTLAHIKDQKEGLHSLQEIRVCEIHEDNSTRSSQHFYYDGELFLSQNLETKEWTMPQSSRAQTLAMNVRNFLKEDAMKTKTHYHAMHADCLQELRRYLKSGVVLRRTVPPMVNVTRSEASEGNITVTCRASGFYPWNITLSWRQDGVSLSHDTQQWGDVLPDGNGTYQTWVATRICQGEEQRFTCYMEHSGNHSTHPVPSGKVLVLQSHW
notes: not shown: Fc portion not described
With B1, in assay [1], the binding entry is on record as “binds”.

B2: ULBP3/Fc (Fc fusion)
chain: DAHSLWYNFTIIHLPRHGQQWCEVQSQVDQKNFLSYDCGSDKVLSMGHLEEQLYATDAWGKQLEMLREVGQRLRLELADTELEDFTPSGPLTLQVRMSCECEADGYIRGSWQFSFDGRKFLLFDSNNRKWTVVHAGARRMKEKWEKDSGLTTFFKMVSMRDCKSWLRDFLMHRKKRLEPTAPPTMAPG
notes: That entry lacks the first five residues of the leader and still holds the rest of the signal peptide and the GPI signal; not shown: Fc portion of ULBP3/Fc is not described
B2: the binding entry in assay [2] and in assay [1] was “binds” in each case.

B3: MICB/Fc (Fc fusion, UniProt Q29980 23-309, looked up)
chain: AEPHSLRYNLMVLSQDGSVQSGFLAEGHLDGQPFLRYDRQKRRAKPQGQWAENVLGAKTWDTETEDLTENGQDLRRTLTHIKDQKGGLHSLQEIRVCEIHEDSSTRGSRHFYYDGELFLSQNLETQESTVPQSSRAQTLAMNVTNFWKEDAMKTKTHYRAMQADCLQKLQRYLKSGVAIRRTVPPMVNVTCSEVSEGNITVTCRASSFYPRNITLTWRQDGVSLSHNTQQWGDVLPDGNGTYQTWVATRIRQGEEQRFTCYMEHSGNHGTHPVPSGKALVLQSQRTD
notes: also called MICB1/FC; not shown: Fc portion not described
Turning to B3, the binding result in assay [3] was “binds”.

B4: UL16-Fc fusion protein (Fc fusion)
chain: VDLGSKSSNSTCRLNVTELASIHPGETWTLHGMCISICYYENVTEDEIIGVAFTWQHNESVVDLWLYQNDTVIRNFSDITTNILQDGLKMRTVPVTKLYTSRMVTNLTVGRYDCLRCENGTTKIIERLYVRLGSLYPRPPGSGLAKHPSVSADEELSA
notes: extracellular domain; not shown: IgG1 Fc (mutein form), as described for OX40-Fc (Baum et al., EMBO J. 13:3992-4001, 1994); the mutein is described in p-
With B4, in assay [4], the binding result was “binds”.
